Results as given in the supplement of paper PMC12137928.

System: HCT116
Conditions: 72 h
Method in brief: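 HCT116 cells were seeded at 250 per well in 1536-well plates and left 5 h to attach. CellTiter-Glo luminescence was scaled to vehicle (0%) and positive control (-100%), then pattern-corrected. IC50 and maximal efficacy came from four-parameter Hill fits.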

O=C(c1ccccc1)c1ccccc1 [Benzophenone]
IC50 cell viability (ICRF193 0 nM): > 45.8 µM | IC50 cell viability (ICRF193 200 nM): > 45.8 µM
